The source of these data is paper PMC10268400.

Protein sequences, listed by entry. Tags and fused reporters are not part of them.
UniProt P48681: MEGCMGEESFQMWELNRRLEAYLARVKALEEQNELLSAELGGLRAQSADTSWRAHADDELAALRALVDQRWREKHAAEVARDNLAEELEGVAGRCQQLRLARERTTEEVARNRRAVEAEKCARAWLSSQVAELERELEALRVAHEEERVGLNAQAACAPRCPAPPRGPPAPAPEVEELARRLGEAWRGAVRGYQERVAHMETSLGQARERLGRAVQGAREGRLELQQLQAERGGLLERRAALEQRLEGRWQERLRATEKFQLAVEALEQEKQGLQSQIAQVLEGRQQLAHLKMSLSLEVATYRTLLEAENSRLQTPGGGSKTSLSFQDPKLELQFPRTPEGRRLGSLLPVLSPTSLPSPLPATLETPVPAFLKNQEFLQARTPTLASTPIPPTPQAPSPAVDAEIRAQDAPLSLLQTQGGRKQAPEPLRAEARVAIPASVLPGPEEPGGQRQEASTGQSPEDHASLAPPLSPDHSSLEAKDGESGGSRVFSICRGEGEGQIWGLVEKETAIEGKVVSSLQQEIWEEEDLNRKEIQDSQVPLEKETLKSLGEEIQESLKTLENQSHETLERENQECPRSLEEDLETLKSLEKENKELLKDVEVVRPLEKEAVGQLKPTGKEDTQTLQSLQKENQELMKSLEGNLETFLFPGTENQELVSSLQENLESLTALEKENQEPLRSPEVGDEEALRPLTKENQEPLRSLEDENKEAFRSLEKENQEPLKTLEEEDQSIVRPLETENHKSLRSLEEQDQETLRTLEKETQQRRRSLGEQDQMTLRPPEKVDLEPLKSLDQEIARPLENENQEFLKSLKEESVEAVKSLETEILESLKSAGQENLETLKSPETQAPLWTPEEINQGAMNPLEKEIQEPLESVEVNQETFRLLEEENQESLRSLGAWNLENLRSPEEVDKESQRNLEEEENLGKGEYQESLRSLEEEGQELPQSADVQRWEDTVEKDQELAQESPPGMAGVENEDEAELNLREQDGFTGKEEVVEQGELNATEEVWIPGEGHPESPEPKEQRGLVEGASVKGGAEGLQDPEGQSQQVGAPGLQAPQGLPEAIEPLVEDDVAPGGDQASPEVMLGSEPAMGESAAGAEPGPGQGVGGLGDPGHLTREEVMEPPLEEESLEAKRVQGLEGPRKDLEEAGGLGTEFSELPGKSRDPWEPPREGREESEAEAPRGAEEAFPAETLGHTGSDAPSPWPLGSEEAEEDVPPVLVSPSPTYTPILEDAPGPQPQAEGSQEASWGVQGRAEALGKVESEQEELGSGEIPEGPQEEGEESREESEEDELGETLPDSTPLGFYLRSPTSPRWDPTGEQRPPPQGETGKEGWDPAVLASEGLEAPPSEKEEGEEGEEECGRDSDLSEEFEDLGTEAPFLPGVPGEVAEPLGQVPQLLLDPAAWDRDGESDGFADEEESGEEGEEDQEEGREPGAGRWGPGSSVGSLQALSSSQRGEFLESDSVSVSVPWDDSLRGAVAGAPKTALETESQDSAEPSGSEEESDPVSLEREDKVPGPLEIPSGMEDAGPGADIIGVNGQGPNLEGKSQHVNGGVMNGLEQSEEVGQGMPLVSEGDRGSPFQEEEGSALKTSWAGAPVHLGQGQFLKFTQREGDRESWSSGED
UniProt P53350: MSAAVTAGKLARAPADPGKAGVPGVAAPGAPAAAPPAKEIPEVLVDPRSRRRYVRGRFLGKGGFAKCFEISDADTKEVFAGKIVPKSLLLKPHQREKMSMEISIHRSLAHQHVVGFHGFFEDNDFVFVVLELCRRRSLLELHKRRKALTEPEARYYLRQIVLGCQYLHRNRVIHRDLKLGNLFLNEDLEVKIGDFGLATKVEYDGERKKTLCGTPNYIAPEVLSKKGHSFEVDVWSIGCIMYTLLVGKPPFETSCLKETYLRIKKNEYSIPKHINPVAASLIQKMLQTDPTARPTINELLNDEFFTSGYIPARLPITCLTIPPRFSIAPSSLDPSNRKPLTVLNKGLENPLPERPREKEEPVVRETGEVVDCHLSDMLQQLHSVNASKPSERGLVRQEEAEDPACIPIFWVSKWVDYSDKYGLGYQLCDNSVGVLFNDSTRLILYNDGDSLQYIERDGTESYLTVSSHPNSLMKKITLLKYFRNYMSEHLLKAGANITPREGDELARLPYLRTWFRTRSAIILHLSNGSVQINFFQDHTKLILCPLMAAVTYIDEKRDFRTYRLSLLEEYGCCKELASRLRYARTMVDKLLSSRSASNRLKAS

No constants are given. Whether binding was seen depends on the method and setting. In cells and extracts the contact can be indirect. Some entries that bind do so weakly or less than the wild type.

In the test the target is nestin (type VI intermediate filament protein) (human (endogenous in HASM cells)) (UniProt P48681). Kind of test: co-IP; extracts of HASM cells untreated or treated with 10^-4 M ACh for different time points; immunoprecipitated with nestin antibody overnight, Protein A/G Plus-Agarose 3 h; washed four times in 50 mM Tris-HCl pH 7.6, 150 mM NaCl, 0.1% Triton X-100; immunoblotted for nestin and Plk1; IgG as control. In general terms: Immunoblotting shows a protein as a band on a membrane.

For the substance “Polo-like kinase 1 (Plk1) (from UniProt P53350 1-603) (enzyme)”, the binding result is “binds”.
